Test results reported in patent US10736988B2 (UNIVERSITY OF PITTSBURGH—OF THE COMMONWEALTH SYSTEM OF …, priority 2012, dated 2020).

Assay: peptide made by a vendor
Conditions: whole synthesis, mass spectrometry and HPLC

B1: … (peptide)
chain: RRRDEDESSDSSDSSDSSDSSDSSDSSDSSDSSDSSDSSDSSDSSDSSDSSDSSDSSDSSDSSDSSDDEG
modifications: derived from consensus mammalian sequence of DSPP; (8)..(68) [Asp Ser Ser] repeats (n varies from 2 to 20); (1)..(3) Insertion of 3 Arg at the N terminus of the peptide; (4)..(7) Casein kinase 1 recognition motif; (69)..(71) Casein kinase 2 recognition motif
purity (crude or final not stated): 92.26%
